Measurements taken from the supplement of paper PMC7666118.
The list shows a part of the results.

Chains of the proteins cited; added tags and fusions are not shown. Lines headed by an entry give the natural chain unless they say otherwise; changes in a name come on top.
UniProt Q96TA2: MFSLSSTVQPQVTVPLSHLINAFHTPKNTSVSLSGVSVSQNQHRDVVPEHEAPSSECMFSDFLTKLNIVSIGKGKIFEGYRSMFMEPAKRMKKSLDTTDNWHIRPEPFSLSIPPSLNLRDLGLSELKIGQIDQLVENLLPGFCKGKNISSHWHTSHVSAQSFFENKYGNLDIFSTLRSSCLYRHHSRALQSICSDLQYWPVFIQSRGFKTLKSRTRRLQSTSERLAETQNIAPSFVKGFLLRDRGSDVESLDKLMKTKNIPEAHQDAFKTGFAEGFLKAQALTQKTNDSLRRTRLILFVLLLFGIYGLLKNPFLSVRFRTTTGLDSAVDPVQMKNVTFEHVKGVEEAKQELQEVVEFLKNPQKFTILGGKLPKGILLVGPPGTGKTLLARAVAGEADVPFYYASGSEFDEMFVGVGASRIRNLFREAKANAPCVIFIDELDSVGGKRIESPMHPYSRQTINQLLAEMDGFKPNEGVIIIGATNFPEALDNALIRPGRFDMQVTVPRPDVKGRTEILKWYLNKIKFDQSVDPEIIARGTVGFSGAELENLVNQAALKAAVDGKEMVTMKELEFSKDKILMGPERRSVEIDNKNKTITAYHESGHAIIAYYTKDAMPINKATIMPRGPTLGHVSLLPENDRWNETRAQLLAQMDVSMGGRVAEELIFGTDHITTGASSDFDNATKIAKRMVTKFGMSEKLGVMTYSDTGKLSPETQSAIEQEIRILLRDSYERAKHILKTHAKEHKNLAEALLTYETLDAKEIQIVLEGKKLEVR
UniProt Q96RL7: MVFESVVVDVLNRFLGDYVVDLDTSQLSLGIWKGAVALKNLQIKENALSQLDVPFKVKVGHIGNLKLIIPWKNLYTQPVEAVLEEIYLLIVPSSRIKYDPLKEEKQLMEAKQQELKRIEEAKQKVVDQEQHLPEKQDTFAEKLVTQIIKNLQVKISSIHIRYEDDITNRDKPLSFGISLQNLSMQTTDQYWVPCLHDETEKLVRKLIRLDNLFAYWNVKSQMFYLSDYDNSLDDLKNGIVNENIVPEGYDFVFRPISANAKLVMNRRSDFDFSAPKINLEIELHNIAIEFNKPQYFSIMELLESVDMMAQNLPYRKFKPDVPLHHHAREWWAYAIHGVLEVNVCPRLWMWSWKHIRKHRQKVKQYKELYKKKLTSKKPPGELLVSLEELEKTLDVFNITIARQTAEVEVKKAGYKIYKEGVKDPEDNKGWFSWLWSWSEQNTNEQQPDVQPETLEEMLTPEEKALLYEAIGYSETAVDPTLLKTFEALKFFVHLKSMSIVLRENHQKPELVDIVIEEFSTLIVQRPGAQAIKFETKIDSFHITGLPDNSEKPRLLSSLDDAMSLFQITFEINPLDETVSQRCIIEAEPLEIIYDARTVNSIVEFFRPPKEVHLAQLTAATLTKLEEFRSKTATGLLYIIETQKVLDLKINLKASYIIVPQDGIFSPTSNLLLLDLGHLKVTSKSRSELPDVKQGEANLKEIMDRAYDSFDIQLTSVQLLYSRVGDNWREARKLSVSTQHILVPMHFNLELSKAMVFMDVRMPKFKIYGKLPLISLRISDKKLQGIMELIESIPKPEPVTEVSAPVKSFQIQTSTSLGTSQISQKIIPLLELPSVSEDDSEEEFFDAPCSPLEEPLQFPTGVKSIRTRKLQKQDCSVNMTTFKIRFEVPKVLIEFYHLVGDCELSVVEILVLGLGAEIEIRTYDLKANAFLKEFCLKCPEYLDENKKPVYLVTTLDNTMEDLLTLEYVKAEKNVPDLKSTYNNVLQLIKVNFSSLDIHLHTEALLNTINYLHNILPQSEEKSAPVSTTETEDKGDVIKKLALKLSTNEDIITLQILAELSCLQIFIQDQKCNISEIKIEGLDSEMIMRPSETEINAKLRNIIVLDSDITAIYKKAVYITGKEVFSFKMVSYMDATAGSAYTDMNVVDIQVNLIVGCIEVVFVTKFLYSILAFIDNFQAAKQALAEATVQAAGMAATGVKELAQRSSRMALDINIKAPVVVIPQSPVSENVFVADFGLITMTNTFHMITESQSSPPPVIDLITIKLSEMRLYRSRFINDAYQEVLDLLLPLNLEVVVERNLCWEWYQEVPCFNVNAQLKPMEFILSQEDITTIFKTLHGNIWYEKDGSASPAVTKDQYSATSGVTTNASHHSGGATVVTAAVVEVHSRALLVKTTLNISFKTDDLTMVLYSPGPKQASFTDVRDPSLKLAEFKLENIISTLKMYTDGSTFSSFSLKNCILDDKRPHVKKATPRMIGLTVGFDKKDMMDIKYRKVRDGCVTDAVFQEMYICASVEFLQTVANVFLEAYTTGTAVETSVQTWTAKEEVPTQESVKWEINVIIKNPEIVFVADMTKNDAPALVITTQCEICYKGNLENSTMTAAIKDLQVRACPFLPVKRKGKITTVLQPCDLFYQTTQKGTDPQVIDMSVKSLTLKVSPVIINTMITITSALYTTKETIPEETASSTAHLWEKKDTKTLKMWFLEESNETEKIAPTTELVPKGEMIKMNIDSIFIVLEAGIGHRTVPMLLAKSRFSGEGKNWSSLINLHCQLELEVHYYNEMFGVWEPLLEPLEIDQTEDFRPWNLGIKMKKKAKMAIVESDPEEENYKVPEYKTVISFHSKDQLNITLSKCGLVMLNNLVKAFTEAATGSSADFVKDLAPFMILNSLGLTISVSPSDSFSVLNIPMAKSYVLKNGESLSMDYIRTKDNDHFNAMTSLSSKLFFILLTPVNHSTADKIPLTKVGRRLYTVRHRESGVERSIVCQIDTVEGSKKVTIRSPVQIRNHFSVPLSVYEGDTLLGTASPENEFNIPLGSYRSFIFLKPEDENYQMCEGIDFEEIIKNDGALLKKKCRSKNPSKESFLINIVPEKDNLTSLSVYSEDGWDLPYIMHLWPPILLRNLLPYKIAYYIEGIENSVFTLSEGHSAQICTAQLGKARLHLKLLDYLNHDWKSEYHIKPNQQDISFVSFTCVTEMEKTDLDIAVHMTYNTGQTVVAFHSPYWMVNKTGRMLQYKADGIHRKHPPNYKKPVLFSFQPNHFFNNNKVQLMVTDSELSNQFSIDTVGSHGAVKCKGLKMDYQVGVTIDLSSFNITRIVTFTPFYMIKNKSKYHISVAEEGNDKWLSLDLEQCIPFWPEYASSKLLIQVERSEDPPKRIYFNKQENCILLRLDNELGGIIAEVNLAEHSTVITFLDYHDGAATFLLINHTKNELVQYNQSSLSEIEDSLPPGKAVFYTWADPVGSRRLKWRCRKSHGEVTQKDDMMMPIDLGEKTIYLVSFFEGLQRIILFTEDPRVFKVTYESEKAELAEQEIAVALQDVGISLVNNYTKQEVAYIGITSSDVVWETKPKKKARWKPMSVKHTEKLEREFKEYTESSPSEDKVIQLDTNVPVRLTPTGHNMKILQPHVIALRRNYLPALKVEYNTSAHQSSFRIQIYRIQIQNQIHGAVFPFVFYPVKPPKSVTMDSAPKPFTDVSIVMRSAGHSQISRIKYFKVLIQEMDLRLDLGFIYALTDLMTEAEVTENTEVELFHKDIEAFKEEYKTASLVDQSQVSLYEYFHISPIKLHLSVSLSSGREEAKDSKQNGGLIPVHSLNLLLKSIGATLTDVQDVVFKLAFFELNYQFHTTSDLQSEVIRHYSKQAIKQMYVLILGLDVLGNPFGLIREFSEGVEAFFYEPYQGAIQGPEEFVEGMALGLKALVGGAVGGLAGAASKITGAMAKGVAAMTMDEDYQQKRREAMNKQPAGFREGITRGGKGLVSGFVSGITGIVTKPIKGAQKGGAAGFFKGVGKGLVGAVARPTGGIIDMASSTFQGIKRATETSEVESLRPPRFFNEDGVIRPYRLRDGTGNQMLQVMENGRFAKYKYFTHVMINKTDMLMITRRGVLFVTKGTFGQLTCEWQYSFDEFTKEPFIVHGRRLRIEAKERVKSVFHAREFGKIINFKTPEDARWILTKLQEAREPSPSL
UniProt Q5VYS8: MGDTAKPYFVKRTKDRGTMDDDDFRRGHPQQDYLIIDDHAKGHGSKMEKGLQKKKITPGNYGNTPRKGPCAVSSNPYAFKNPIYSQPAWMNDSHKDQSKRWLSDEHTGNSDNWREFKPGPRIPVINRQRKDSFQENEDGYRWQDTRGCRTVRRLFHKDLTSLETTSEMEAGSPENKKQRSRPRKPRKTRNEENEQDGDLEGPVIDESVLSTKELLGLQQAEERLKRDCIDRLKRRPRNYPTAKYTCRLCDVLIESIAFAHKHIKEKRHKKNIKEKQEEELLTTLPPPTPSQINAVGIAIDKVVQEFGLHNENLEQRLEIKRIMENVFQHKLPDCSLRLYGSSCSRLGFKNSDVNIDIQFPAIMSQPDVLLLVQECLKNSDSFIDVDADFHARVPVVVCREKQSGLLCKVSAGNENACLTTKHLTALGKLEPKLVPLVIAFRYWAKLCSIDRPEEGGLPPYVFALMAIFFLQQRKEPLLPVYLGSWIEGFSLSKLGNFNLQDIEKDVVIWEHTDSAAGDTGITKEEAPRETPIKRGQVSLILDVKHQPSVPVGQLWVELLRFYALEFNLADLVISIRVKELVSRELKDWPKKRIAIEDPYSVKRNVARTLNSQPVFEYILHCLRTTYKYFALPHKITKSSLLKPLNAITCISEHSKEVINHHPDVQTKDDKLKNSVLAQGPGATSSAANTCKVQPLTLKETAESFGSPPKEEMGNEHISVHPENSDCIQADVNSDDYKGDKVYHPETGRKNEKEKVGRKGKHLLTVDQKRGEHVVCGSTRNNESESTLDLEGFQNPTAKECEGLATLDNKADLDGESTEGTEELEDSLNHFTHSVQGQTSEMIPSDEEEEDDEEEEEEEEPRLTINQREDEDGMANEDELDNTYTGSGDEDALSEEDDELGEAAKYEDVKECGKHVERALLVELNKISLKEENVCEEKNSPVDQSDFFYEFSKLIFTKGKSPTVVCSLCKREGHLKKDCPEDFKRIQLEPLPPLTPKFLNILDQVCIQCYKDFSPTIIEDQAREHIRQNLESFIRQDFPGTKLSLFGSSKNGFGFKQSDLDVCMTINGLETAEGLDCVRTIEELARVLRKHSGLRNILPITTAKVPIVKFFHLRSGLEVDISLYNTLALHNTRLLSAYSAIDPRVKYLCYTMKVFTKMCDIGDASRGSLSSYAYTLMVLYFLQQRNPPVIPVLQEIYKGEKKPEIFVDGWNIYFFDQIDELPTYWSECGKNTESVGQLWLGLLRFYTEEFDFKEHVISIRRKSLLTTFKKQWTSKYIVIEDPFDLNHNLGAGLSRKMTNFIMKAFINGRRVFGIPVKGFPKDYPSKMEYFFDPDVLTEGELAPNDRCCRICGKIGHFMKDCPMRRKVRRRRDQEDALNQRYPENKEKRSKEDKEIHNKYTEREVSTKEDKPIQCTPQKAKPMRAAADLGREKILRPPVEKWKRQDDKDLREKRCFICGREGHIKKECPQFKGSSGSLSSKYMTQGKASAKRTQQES
UniProt Q8IWR0: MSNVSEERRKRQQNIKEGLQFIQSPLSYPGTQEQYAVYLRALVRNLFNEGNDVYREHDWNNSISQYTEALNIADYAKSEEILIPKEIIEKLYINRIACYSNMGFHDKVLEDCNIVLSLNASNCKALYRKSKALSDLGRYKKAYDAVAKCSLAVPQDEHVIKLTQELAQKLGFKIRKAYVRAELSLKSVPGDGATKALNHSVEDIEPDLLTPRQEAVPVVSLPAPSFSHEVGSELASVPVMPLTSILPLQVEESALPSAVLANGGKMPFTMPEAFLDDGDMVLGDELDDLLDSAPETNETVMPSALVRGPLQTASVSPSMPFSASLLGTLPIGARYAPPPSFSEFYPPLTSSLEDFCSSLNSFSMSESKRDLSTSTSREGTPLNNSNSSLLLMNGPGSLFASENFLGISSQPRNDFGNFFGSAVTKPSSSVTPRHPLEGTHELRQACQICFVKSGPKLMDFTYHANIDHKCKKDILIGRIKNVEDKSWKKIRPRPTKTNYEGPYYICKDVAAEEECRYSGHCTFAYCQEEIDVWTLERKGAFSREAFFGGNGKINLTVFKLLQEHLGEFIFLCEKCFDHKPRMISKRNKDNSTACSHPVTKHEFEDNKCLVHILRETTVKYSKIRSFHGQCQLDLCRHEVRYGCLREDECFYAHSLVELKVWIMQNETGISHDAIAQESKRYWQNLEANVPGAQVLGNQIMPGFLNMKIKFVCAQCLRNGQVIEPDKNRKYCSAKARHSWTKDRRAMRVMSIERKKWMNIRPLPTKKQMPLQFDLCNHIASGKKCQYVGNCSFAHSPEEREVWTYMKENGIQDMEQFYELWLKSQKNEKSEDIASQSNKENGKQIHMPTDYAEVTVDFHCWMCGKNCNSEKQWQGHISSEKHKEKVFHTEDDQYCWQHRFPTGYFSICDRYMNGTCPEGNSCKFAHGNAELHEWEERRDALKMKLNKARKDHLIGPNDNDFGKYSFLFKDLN

Compound: COc1ccc(Cn2ccc3ccc(C(=O)NO)cc32)cc1
Assay: dose-dependent thermal stabilisation call (2D-TPP, DLPTP, 10% FDR) (binary (1 = stabilised)); higher = stabilised by the compound
Details: system: HL-60 intact cells; concentration range 0.04-10 µM

**Q.** With WDTC1 (UniProt Q8N5D0) as the target, how does the “dose-dependent thermal stabilisation call” value read?
**A.** Its value is inactive: 0.

**Q.** With WWC2 (UniProt Q6AWC2) as the target, how does the “dose-dependent thermal stabilisation call” value read?
**A.** Its value is inactive: 0.

**Q.** WDR40A (UniProt Q5T6F0) was tested. Which “dose-dependent thermal stabilisation call” value did it give?
**A.** Its value is inactive: 0.

**Q.** For YME1L1 (UniProt Q96TA2), which “dose-dependent thermal stabilisation call” value is on record?
**A.** Its value is inactive: 0.

**Q.** How did the “dose-dependent thermal stabilisation call” value turn out when YKT6 (UniProt O15498) was run?
**A.** Its value is inactive: 0.

**Q.** With VPS13A (UniProt Q96RL7) as the target, how does the “dose-dependent thermal stabilisation call” value read?
**A.** The value was inactive: 0.

**Q.** Which “dose-dependent thermal stabilisation call” value does the source give for WDFY3 (UniProt Q8IZQ1) here?
**A.** The value was inactive: 0.

**Q.** For VPRBP (UniProt Q9Y4B6), which “dose-dependent thermal stabilisation call” value is on record?
**A.** Its value is inactive: 0.

**Q.** For ZCCHC6 (UniProt Q5VYS8), which “dose-dependent thermal stabilisation call” value is on record?
**A.** The value was inactive: 0.

**Q.** With ZC3H7A (UniProt Q8IWR0) as the target, how does the “dose-dependent thermal stabilisation call” value read?
**A.** The value was inactive: 0.

**Q.** For VTI1A (UniProt Q96AJ9), which “dose-dependent thermal stabilisation call” value is on record?
**A.** The value was inactive: 0.
